From paper PMC9803661
These are yes or no findings as the source states them, for the method shown. In cells and extracts the contact can be indirect. Some binding calls cover weakened binding; strength is not graded here.

By UniProt entry, the sequences of proteins in these tests, tags left out. Residues count along the entry.
UniProt P07174, residues 30-425: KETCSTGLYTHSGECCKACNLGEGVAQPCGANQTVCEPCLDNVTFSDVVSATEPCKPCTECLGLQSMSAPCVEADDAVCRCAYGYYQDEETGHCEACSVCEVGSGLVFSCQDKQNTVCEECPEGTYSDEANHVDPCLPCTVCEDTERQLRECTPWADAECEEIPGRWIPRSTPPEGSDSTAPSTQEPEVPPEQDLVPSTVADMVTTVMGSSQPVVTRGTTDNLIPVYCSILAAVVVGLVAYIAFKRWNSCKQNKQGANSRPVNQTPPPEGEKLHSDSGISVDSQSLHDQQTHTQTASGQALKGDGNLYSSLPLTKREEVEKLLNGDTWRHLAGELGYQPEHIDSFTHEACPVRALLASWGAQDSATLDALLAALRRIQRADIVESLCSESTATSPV

Molecular target: T1, Mage-D1 (MAGE family member D1; melanoma-associated antigen D1) (rat (endogenous in E19.5 d EMSCs)) (UniProt Q9ES73)
T1 sequence: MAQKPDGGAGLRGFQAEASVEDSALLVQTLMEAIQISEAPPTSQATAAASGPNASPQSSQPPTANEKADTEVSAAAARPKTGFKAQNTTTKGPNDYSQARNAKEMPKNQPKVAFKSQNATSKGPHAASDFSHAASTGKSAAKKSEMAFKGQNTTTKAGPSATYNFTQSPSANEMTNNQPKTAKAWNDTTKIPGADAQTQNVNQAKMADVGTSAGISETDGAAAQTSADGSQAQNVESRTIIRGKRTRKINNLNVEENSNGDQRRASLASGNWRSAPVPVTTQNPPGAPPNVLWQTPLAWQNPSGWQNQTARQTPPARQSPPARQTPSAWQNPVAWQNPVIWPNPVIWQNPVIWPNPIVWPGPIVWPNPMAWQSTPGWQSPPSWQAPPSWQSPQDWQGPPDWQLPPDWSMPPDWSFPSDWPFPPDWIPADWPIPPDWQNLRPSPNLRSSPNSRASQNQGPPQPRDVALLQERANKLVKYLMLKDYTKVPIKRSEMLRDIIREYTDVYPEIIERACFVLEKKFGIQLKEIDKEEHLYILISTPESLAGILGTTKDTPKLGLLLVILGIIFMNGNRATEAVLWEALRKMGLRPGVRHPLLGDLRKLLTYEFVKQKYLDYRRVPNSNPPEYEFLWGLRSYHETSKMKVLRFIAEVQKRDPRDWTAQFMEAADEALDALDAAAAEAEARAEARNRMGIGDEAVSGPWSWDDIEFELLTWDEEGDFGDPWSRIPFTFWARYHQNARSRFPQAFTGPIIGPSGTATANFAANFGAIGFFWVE
Experiment: co-IP; magnetic beads with rabbit polyclonal anti-Mage-D1 antibody (2 h), then E19.5 d rat EMSC protein lysate overnight at 4 °C; Western blot for p75NTR, Dlx1, Msx1

p75 neurotrophin receptor (p75NTR) (from UniProt P07174 30-425)
binding: binds
